{"source": "paper PMC5021333", "molecular_target": "Flag-tagged Hendra virus matrix protein (Hendra virus) (UniProt O89341)", "experiment": "co-IP", "note": "Results are given in words; binding and its absence hold for the method and conditions named. In cells and extracts the contact can be indirect. Some results given as binding are weak or reduced against the parent protein; the word gives no strength. Tags and fused reporters may be left off the sequences shown."}
{"binder": "Myc-IKKε (IκB kinase epsilon) (enzyme, UniProt Q14164 1-716) MQSTANYLWHTDDLLGQGATASVYKARNKKSGELVAVKVFNTTSYLRPREVQVREFEVLRKLNHQNIVKLFAVEETGGSRQKVLVMEYCSSGSLLSVLESPENAFGLPEDEFLVVLRCVVAGMNHLRENGIVHRDIKPGNIMRLVGEEGQSIYKLTDFGAARELDDDEKFVSVYGTEEYLHPDMYERAVLRKPQQKAFGVTVDLWSIGVTLYHAATGSLPFIPFGGPRRNKEIMYRITTEKPAGAIAGAQRRENGPLEWSYTLPITCQLSLGLQSQLVPILANILEVEQAKCWGFDQFFAETSDILQRVVVHVFSLSQAVLHHIYIHAHNTIAIFQEAVHKQTSVAPRHQEYLFEGHLCVLEPSVSAQHIAHTTASSPLTLFSTAIPKGLAFRDPALDVPKFVPKVDLQADYNTAKGVLGAGYQALRLARALLDGQELMFRGLHWVMEVLQATCRRTLEVARTSLLYLSSSLGTERFSSVAGTPEIQELKAAAELRSRLRTLAEVLSRCSQNITETQESLSSLNRELVKSRDQVHEDRSIQQIQCCLDKMNFIYKQFKKSRMRPGLGYNEEQIHKLDKVNFSHLAKRLLQVFQEECVQKYQASLVTHGKRMRVVHETRNHLRLVGCSVAACNTEAQGVQESLSKLLEELSHQLLQDRAKGAQASPPPIAPYPSPTRKDLLLHMQELCEGMKLLASDLLDNNRIIERLNRVPAPPDV", "values": [{"measurement": "binding", "value": "binds"}]}
